Results on ten molecules are retold here after article doi:10.1101/2024.07.16.603680.

Amino acid sequences for entries named in this document (tags omitted).
UniProt Q99700: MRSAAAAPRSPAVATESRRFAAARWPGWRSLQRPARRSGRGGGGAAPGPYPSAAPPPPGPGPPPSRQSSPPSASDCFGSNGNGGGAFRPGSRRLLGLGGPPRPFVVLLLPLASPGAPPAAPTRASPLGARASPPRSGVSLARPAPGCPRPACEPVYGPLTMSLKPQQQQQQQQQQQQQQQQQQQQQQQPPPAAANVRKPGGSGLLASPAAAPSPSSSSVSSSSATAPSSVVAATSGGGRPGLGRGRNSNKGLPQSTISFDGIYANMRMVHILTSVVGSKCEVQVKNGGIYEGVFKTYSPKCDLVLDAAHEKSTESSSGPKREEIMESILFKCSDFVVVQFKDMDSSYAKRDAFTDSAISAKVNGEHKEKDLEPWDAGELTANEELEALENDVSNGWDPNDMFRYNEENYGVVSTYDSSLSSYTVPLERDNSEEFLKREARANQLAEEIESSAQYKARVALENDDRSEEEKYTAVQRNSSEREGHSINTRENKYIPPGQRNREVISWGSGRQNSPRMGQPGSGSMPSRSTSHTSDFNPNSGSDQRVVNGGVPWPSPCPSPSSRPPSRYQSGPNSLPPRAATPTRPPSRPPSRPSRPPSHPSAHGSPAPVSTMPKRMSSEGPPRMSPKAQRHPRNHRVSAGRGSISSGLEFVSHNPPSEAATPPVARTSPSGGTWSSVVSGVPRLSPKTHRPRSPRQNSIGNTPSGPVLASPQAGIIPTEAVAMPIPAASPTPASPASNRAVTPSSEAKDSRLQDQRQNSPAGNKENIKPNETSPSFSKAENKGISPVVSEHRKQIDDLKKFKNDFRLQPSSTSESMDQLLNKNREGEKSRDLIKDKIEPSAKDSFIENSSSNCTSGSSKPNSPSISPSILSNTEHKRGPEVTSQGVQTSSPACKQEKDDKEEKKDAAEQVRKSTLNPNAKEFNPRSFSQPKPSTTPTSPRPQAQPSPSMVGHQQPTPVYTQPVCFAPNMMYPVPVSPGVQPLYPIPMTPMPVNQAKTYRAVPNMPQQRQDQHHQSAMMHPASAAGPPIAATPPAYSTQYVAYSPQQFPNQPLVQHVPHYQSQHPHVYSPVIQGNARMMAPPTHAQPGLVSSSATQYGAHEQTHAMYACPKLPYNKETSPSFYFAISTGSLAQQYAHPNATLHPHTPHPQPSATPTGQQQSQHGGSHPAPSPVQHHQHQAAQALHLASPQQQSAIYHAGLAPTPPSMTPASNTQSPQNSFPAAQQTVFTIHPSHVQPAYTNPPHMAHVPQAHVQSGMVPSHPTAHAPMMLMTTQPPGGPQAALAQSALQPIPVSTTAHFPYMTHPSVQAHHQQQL
UniProt Q07065: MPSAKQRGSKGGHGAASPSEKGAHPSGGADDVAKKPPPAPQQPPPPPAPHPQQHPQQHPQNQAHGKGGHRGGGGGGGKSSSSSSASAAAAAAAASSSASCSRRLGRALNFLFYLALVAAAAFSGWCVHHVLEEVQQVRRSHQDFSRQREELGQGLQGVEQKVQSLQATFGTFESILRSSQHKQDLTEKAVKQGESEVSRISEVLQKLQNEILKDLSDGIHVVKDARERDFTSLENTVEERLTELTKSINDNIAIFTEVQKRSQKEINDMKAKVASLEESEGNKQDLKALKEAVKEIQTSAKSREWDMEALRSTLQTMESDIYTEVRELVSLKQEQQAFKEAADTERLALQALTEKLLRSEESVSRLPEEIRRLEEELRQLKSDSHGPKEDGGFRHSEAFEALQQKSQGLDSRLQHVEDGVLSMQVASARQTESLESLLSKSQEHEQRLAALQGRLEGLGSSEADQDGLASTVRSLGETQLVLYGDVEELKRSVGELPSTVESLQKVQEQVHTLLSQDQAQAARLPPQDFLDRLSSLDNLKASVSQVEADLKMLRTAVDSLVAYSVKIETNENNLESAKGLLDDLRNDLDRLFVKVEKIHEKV
UniProt Q14247: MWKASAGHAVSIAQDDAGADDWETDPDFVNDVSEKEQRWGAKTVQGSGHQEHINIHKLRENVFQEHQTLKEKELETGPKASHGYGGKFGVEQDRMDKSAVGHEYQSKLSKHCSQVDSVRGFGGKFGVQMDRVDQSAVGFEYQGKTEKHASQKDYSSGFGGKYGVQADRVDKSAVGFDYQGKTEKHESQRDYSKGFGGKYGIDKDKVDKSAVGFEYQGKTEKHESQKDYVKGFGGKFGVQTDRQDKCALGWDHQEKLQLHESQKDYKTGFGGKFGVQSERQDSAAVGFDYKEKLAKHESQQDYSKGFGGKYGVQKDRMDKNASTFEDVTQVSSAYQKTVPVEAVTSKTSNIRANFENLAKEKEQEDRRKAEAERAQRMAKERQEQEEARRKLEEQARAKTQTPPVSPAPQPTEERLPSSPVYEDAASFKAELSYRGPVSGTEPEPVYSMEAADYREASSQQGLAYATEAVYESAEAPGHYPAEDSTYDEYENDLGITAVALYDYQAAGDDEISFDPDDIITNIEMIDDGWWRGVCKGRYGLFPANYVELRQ
UniProt Q9Y597: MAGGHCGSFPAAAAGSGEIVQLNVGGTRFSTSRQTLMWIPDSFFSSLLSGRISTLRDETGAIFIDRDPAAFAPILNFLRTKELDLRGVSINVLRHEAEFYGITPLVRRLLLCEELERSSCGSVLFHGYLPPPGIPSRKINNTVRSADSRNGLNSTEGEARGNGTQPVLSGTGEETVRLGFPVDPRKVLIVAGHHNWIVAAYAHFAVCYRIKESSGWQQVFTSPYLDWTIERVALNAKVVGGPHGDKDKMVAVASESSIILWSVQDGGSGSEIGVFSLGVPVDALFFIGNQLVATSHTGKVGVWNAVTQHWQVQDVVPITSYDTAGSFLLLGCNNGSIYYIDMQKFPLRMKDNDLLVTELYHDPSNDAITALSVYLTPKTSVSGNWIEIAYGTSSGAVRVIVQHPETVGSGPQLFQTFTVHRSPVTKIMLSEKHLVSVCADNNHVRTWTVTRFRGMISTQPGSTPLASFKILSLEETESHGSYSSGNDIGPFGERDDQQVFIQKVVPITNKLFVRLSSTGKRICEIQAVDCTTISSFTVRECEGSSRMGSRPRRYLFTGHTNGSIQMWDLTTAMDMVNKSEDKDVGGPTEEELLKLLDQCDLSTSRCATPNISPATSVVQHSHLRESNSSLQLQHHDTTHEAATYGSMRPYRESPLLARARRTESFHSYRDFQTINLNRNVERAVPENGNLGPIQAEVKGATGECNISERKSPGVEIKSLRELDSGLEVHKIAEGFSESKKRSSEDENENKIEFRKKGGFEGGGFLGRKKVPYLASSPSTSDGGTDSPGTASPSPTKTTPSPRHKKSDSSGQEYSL
UniProt Q9UQ35: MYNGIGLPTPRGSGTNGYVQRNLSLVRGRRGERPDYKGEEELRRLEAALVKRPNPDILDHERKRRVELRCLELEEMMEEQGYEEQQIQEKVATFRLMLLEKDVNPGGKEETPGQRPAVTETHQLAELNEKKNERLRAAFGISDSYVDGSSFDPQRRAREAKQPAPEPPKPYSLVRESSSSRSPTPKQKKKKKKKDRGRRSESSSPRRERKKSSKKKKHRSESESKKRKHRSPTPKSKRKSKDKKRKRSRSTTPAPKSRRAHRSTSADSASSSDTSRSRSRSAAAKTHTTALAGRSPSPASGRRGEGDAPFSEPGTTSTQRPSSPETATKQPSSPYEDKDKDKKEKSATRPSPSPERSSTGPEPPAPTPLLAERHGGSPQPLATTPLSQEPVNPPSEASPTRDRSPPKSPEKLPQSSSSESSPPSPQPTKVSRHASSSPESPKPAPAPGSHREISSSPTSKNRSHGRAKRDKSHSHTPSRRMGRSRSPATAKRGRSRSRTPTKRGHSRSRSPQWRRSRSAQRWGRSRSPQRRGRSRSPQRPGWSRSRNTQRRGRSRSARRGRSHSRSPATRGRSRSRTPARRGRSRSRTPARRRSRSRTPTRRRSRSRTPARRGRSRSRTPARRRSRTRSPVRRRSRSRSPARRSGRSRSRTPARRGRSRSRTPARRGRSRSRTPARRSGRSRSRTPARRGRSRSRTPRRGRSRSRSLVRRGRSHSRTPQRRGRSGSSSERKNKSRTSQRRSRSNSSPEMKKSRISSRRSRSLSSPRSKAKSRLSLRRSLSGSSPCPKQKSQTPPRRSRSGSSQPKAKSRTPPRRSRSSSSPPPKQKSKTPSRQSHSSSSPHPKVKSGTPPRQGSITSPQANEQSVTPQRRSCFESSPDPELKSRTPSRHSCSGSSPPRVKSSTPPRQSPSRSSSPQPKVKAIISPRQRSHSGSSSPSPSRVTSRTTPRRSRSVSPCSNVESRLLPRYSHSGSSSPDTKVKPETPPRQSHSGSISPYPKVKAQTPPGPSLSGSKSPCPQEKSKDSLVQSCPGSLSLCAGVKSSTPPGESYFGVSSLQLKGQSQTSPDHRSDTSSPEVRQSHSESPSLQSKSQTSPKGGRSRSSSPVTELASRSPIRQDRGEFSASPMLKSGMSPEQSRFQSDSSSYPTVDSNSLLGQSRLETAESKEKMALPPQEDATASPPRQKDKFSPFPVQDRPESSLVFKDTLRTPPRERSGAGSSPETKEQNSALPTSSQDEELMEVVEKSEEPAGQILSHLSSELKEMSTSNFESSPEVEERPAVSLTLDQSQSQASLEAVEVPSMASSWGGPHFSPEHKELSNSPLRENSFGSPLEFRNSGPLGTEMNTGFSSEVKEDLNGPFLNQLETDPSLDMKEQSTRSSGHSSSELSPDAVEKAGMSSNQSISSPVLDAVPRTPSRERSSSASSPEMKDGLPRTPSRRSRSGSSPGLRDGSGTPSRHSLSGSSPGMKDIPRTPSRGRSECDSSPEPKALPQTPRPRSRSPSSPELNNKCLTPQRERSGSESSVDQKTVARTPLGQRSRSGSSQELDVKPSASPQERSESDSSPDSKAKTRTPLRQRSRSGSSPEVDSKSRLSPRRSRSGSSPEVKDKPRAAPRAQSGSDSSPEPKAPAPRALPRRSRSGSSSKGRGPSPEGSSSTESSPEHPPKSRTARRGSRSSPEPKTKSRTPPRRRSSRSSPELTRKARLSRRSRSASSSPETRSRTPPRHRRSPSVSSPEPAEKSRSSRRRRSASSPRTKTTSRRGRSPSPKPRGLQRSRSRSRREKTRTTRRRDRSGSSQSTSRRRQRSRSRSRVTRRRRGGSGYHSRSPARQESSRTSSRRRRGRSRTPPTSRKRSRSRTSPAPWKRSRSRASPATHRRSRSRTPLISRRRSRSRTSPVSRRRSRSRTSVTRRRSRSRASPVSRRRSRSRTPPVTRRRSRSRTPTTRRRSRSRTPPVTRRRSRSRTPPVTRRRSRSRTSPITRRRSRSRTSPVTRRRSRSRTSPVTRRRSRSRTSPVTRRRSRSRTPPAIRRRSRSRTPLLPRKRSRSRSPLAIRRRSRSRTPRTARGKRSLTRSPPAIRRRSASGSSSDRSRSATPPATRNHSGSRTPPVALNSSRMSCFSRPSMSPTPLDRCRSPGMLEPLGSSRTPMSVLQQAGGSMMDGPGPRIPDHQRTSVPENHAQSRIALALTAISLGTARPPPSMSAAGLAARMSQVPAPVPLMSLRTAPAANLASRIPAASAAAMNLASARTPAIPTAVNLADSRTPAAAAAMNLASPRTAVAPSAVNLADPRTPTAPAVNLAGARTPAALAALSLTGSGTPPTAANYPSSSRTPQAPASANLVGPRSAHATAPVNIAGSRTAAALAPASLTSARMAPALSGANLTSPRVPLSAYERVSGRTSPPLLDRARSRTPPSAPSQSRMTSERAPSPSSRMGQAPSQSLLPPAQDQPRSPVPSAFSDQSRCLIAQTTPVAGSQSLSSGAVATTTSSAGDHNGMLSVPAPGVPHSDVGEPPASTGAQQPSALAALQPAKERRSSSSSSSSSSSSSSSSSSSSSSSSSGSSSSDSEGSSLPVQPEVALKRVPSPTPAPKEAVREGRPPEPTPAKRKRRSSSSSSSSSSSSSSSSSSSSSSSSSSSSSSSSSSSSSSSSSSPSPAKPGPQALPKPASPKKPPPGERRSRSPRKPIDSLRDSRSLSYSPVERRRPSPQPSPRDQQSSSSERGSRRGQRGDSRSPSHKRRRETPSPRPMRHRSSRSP

No constants are given. Whether binding was seen depends on the method and setting. In cells and extracts the contact can be indirect. Here binding means that the protein was enriched with, or labelled near, the bait; the list need not be complete.

Assay [1] concerns the target T1, CCCTC-binding insulator (CTCF) (human (endogenous in IMR90)) (UniProt P49711).
T1 sequence: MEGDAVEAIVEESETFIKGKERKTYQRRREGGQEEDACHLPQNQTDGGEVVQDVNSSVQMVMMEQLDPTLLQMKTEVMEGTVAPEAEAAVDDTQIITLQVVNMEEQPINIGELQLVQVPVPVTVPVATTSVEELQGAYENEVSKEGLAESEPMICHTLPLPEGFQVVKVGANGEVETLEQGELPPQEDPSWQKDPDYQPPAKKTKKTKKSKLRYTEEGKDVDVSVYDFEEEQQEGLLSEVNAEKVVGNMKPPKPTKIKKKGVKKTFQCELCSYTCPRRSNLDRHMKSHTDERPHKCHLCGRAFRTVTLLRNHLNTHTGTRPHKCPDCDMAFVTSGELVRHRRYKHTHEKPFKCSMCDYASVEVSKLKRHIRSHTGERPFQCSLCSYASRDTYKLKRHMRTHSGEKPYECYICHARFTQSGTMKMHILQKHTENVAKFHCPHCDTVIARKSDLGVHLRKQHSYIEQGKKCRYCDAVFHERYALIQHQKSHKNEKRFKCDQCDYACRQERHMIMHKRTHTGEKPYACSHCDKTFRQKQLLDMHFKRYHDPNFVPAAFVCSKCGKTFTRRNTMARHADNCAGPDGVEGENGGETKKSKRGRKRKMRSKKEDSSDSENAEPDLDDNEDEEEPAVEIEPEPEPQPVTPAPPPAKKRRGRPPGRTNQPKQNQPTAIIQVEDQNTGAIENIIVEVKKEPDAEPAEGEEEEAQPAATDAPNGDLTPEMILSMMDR
Briefly: affinity purification with mass spectrometry.

Assay [2] deals with T2, High mobility group-box 2 (HMGB2) (human (endogenous in IMR90)) (UniProt P26583).
T2 sequence: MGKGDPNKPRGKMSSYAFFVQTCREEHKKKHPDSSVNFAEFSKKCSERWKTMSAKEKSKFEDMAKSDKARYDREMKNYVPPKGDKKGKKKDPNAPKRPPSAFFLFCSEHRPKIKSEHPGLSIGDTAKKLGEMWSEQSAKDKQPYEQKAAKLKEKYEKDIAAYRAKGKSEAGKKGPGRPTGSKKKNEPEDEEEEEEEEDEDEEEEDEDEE
The experiment in a line: affinity purification with mass spectrometry.

With ATXN2 (from UniProt Q99700 1-1313), the binding result in assay [1] is “binds”.
For the molecule CKAP4 (from UniProt Q07065 1-602), the binding entry in assay [1] was “binds”.
Still for that read-out and setting: for CTTN (from UniProt Q14247 1-550) the value was “binds”; for KCTD3 (from UniProt Q9Y597 1-815), “binds”.
Still for that read-out and setting: as for MAP1A (from UniProt P78559 1-2803), the entry is “binds”; as for SQSTM1 (from UniProt Q13501 1-440), “binds”.
Consider SRRM2 (from UniProt Q9UQ35 1-2752), for which the binding entry in assay [2] and in assay [1] was “binds” throughout.

B1: CLCC1 (protein, UniProt Q96S66 19-551)
chain: HDDDWIDPTDMLNYDAASGTMRKSQAKYGISGEKDVSPDLSCADEISECYHKLDSLTYKIDECEKKKREDYESQSNPVFRRYLNKILIEAGKLGLPDENKGDMHYDAEIILKRETLLEIQKFLNGEDWKPGALDDALSDILINFKFHDFETWKWRFEDSFGVDPYNVLMVLLCLLCIVVLVATELWTYVRWYTQLRRVLIISFLFSLGWNWMYLYKLAFAQHQAEVAKMEPLNNVCAKKMDWTGSIWEWFRSSWTYKDDPCQKYYELLLVNPIWLVPPTKALAVTFTTFVTEPLKHIGKGTGEFIKALMKEIPALLHLPVLIIMALAILSFCYGAGKSVHVLRHIGGPESEPPQALRPRDRRRQEEIDYRPDGGAGDADFHYRGQMGPTEQGPYAKTYEGRREILRERDVDLRFQTGNKSPEVLRAFDVPDAEAREHPTVVPSHKSPVLDTKPKETGGILGEGTPKESSTESSQSAKPVSGQDTSGNTEGSPAAEKAQLKSEAAGSPDQGSTYSPARGVAGPRGQDPVSSPCG
As for B1, the binding result in assay [1] is “binds”.

B2: A2M (protein, UniProt P01023 24-1474)
chain: SVSGKPQYMVLVPSLLHTETTEKGCVLLSYLNETVTVSASLESVRGNRSLFTDLEAENDVLHCVAFAVPKSSSNEEVMFLTVQVKGPTQEFKKRTTVMVKNEDSLVFVQTDKSIYKPGQTVKFRVVSMDENFHPLNELIPLVYIQDPKGNRIAQWQSFQLEGGLKQFSFPLSSEPFQGSYKVVVQKKSGGRTEHPFTVEEFVLPKFEVQVTVPKIITILEEEMNVSVCGLYTYGKPVPGHVTVSICRKYSDASDCHGEDSQAFCEKFSGQLNSHGCFYQQVKTKVFQLKRKEYEMKLHTEAQIQEEGTVVELTGRQSSEITRTITKLSFVKVDSHFRQGIPFFGQVRLVDGKGVPIPNKVIFIRGNEANYYSNATTDEHGLVQFSINTTNVMGTSLTVRVNYKDRSPCYGYQWVSEEHEEAHHTAYLVFSPSKSFVHLEPMSHELPCGHTQTVQAHYILNGGTLLGLKKLSFYYLIMAKGGIVRTGTHGLLVKQEDMKGHFSISIPVKSDIAPVARLLIYAVLPTGDVIGDSAKYDVENCLANKVDLSFSPSQSLPASHAHLRVTAAPQSVCALRAVDQSVLLMKPDAELSASSVYNLLPEKDLTGFPGPLNDQDNEDCINRHNVYINGITYTPVSSTNEKDMYSFLEDMGLKAFTNSKIRKPKMCPQLQQYEMHGPEGLRVGFYESDVMGRGHARLVHVEEPHTETVRKYFPETWIWDLVVVNSAGVAEVGVTVPDTITEWKAGAFCLSEDAGLGISSTASLRAFQPFFVELTMPYSVIRGEAFTLKATVLNYLPKCIRVSVQLEASPAFLAVPVEKEQAPHCICANGRQTVSWAVTPKSLGNVNFTVSAEALESQELCGTEVPSVPEHGRKDTVIKPLLVEPEGLEKETTFNSLLCPSGGEVSEELSLKLPPNVVEESARASVSVLGDILGSAMQNTQNLLQMPYGCGEQNMVLFAPNIYVLDYLNETQQLTPEIKSKAIGYLNTGYQRQLNYKHYDGSYSTFGERYGRNQGNTWLTAFVLKTFAQARAYIFIDEAHITQALIWLSQRQKDNGCFRSSGSLLNNAIKGGVEDEVTLSAYITIALLEIPLTVTHPVVRNALFCLESAWKTAQEGDHGSHVYTKALLAYAFALAGNQDKRKEVLKSLNEEAVKKDNSVHWERPQKPKAPVGHFYEPQAPSAEVEMTSYVLLAYLTAQPAPTSEDLTSATNIVKWITKQQNAQGGFSSTQDTVVALHALSKYGAATFTRTGKAAQVTIQSSGTFSSKFQVDNNNRLLLQQVSLPELPGEYSMKVTGEGCVYLQTSLKYNILPEKEEFPFALGVQTLPQTCDEPKAHTSFQISLSVSYTGSRSASNMAIVDVKMVSGFIPLKPTVKMLERSNHVSRTEVSSNHVLIYLDKVSNQTLSLFFTVLQDVPVRDLKPAIVKVYDYYETDEFAIAEYNAPCSKDLGNA
In the case of B2, the binding result in assay [1] is given as “binds”.

B3: BANF1 (protein, UniProt O75531 1-89)
chain: MTTSQKHRDFVAEPMGEKPVGSLAGIGEVLGKKLEERGFDKAYVVLGQFLVLKKDEDLFREWLKDTCGANAKQSRDCFGCLREWCDAFL
With B3, the binding result in assay [1] is recorded as “binds”.
